Source: patent US20230227838A1, “ENHANCED CELL SURVIVAL AGAINST BIOTIC AND ABIOTIC STRESSES THROUGH SALICYLICK ACID-INDUCED NPR1 CONDENSATES” (priority 2020, published 2023)
Some results were stated once for a whole list of compounds, not compound by compound.

B1: NPR2: Arabidopsis NPR1 paralog AtNPR2 (AT4G26120) (protein, UniProt Q9SZI3 1-600, looked up)
Regulatory protein NPR2: MATTTTTTTARFSDSYEFSNTSGNSFFAAESSLDYPTEFLTPPEVSALKLLSNCLESVFDSPETFYSDAKLVLAGGREVSFHRCILSARIPVFKSALATVKEQKSSTTVKLQLKEIARDYEVGFDSVVAVLAYVYSGRVRSPPKGASACVDDDCCHVACRSKVDFMVEVLYLSFVFQIQELVTLYERQFLEIVDKVVVEDILVIFKLDTLCGTTYKKLLDRCIEIIVKSDIELVSLEKSLPQHIFKQIIDIREALCLEPPKLERHVKNIYKALDSDDVELVKMLLLEGHTNLDEAYALHFAIAHCAVKTAYDLLELELADVNLRNPRGYTVLHVAAMRKEPKLIISLLMKGANILDTTLDGRTALVIVKRLTKADDYKTSTEDGTPSLKGGLCIEVLEHEQKLEYLSPIEASLSLPVTPEELRMRLLYYENRVALARLLFPVETETVQGIAKLEETCEFTASSLEPDHHIGEKRTSLDLNMAPFQIHEKHLSRLRALCKTVELGKRYFKRCSLDHFMDTEDLNHLASVEEDTPEKRLQKKQRYMELQETLMKTFSEDKEECGKSSTPKPTSAVRSNRKLSHRRLKVDKRDFLKRPYGNGD
B2: NPR3: Arabidopsis NPR1 paralog AtNPR3 (AT5G45110) (protein, UniProt Q8L746 1-586, looked up)
Regulatory protein NPR3: MATLTEPSSSLSFTSSHFSYGSIGSNHFSSSSASNPEVVSLTKLSSNLEQLLSNSDCDYSDAEIIVDGVPVGVHRCILAARSKFFQDLFKKEKKISKTEKPKYQLREMLPYGAVAHEAFLYFLSYIYTGRLKPFPLEVSTCVDPVCSHDCCRPAIDFVVQLMYASSVLQVPELVSSFQRRLCNFVEKTLVENVLPILMVAFNCKLTQLLDQCIERVARSDLYRFCIEKEVPPEVAEKIKQLRLISPQDEETSPKISEKLLERIGKILKALDSDDVELVKLLLTESDITLDQANGLHYSVVYSDPKVVAEILALDMGDVNYRNSRGYTVLHFAAMRREPSIIISLIDKGANASEFTSDGRSAVNILRRLTNPKDYHTKTAKGRESSKARLCIDILEREIRKNPMVLDTPMCSISMPEDLQMRLLYLEKRVGLAQLFFPTEAKVAMDIGNVEGTSEFTGLSPPSSGLTGNLSQVDLNETPHMQTQRLLTRMVALMKTVETGRRFFPYGSEVLDKYMAEYIDDDILDDFHFEKGSTHERRLKRMRYRELKDDVQKAYSKDKESKIARSCLSASSSPSSSSIRDDLHNTT
B3: NPR4: Arabidopsis NPR1 paralog AtNPR4 (AT4G19660) (protein, UniProt Q5ICL9 1-574, looked up)
Regulatory protein NPR4: MAATAIEPSSSISFTSSHLSNPSPVVTTYHSAANLEELSSNLEQLLTNPDCDYTDAEIIIEEEANPVSVHRCVLAARSKFFLDLFKKDKDSSEKKPKYQMKDLLPYGNVGREAFLHFLSYIYTGRLKPFPIEVSTCVDSVCAHDSCKPAIDFAVELMYASFVFQIPDLVSSFQRKLRNYVEKSLVENVLPILLVAFHCDLTQLLDQCIERVARSDLDRFCIEKELPLEVLEKIKQLRVKSVNIPEVEDKSIERTGKVLKALDSDDVELVKLLLTESDITLDQANGLHYAVAYSDPKVVTQVLDLDMADVNFRNSRGYTVLHIAAMRREPTIIIPLIQKGANASDFTFDGRSAVNICRRLTRPKDYHTKTSRKEPSKYRLCIDILEREIRRNPLVSGDTPTCSHSMPEDLQMRLLYLEKRVGLAQLFFPAEANVAMDVANVEGTSECTGLLTPPPSNDTTENLGKVDLNETPYVQTKRMLTRMKALMKTVETGRRYFPSCYEVLDKYMDQYMDEEIPDMSYPEKGTVKERRQKRMRYNELKNDVKKAYSKDKVARSCLSSSSPASSLREALENPT

Test system: CUL3
Assay: BiFC assay of interaction with CUL3
Assay type: cell-based, Arabidopsis thaliana
Details: 1 mM SA for 5 hr
Description: Plasmid construction and E. coli-based ubiquitination: The coding sequences for all Arabidopsis genes were amplified from cDNA. Point mutations of AtNPR1 (AT1G64280) were generated using the QuikChange II site-directed mutagenesis kit (Agilent). Overlap PCR was used to generate the deletion/truncation mutations of AtCUL3A (AT1G26830) and AtNPR1. The WT and mutated coding sequences for all genes and gene fusions were sub-cloned into the pDONR207 gateway donor vector and confirmed by sequencing. The obtained entry vectors were recombined into either plant or E. coli destination vectors without or with an N- or C-terminal tag. For in planta expression, genes were recombined into the plant binary vectors pK7FWG2, pSITE-4NB and pLN462 to generate C-terminal eGFP, mCherry and HA fusions, respectively; into pK7WGF2, pEG201, pEG202, pEG203 and pEG204 to generate N-terminal eGFP, HA, FLAG, Myc and V5 fusions, respectively. For co-expression of NPR1 and CUL3 in E. coli, NPR1 or its mutant/truncation variants were first recombined into pDEST15 vector to generate N-terminal GST fusions (GST-NPR1). Next, E. coli-codon-optimized coding sequence of AtCUL3A fused to the Myc tag was amplified from pEG203-CUL3 and inserted between NdeI and XhoI in the MCS-II of pCDFDuet-1 to generate pCDFDuet-1:Myc-CUL3 plasmid. The two plasmids, pDEST15-NPR1 and pCDFDuet-1:Myc-CUL3, were co-transformed into the E. coli strain BL21(DE3) and protein expression was induced with 0.25 mM IPTG for 12 hr at 20° C. For co-expression of NPR1 and EDS1 in E. coli, the coding sequence of AtEDS1 (AT3G48090) fused to FLAG tag was inserted between NcoI and NotI in MCS-I of pETDuet-1 to first generate the pETDuet-1:FLAG-EDS1 plasmid. […] For bimolecular fluorescence complementation (BiFC), entry vectors carrying the coding sequences of genes and their mutant variants were recombined into the pSITE-cEYFP-N1 binary vector for C-terminal fusion with the cYFP half (YC), or into the pSITE-nEYFP-C1 for N-terminal fusion with the nYFP half (YN). […]

Molecule	subcellular location of interaction with CUL3
B1	predominantly in the nucleus
B2	predominantly in the nucleus
B3	predominantly in the nucleus
